Data: the supplement of paper PMC10849652
This is one part of the list.

Amino acid sequences for entries named in this document (tags omitted). A change or cut given only in a name is not applied to a line headed by its entry.
UniProt Q99426: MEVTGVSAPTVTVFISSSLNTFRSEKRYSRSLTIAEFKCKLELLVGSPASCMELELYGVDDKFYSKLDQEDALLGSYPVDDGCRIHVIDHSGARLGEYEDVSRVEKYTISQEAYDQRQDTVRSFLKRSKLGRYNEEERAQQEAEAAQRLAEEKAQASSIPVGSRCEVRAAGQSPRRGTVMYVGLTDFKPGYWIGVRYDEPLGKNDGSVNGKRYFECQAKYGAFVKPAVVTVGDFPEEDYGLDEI
UniProt P01137, whole entry, looked up: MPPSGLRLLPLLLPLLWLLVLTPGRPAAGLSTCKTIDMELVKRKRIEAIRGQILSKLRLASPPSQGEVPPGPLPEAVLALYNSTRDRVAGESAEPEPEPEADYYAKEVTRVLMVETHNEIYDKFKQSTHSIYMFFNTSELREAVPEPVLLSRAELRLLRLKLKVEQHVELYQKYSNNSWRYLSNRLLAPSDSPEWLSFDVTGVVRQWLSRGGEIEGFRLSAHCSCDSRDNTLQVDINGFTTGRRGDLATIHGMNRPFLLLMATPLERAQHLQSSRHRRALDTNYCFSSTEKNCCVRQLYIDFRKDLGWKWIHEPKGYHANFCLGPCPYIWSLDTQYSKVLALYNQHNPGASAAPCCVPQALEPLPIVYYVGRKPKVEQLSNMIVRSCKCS
UniProt Q9BTW9: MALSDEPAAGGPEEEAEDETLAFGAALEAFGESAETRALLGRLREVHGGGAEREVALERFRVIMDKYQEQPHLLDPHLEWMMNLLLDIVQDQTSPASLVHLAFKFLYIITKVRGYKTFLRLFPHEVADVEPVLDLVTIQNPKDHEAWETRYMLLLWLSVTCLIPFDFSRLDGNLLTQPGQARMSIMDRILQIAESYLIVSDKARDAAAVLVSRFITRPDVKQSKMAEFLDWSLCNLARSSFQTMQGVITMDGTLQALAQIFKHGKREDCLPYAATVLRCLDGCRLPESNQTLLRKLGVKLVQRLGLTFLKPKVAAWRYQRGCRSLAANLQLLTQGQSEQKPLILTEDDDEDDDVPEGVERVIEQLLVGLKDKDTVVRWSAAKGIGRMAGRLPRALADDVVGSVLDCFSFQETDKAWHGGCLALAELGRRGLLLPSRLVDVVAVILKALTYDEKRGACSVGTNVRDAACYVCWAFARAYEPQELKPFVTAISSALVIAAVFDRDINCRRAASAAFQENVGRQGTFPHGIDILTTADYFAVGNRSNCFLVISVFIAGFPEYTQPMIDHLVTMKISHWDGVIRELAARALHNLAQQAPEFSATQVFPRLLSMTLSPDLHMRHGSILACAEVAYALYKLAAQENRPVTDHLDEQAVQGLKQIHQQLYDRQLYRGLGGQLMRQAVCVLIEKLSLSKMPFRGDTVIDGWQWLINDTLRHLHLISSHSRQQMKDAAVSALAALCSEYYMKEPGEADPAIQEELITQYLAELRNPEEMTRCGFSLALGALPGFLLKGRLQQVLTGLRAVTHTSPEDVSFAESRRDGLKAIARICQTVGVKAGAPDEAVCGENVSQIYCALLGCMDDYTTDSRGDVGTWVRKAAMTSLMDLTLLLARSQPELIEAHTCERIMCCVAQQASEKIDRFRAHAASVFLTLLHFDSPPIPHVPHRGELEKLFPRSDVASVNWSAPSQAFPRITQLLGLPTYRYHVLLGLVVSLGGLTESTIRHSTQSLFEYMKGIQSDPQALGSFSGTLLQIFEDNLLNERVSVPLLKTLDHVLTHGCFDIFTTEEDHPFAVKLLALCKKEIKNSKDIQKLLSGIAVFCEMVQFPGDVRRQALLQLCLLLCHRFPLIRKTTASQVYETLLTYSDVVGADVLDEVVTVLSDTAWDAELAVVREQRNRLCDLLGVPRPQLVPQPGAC
UniProt P29401: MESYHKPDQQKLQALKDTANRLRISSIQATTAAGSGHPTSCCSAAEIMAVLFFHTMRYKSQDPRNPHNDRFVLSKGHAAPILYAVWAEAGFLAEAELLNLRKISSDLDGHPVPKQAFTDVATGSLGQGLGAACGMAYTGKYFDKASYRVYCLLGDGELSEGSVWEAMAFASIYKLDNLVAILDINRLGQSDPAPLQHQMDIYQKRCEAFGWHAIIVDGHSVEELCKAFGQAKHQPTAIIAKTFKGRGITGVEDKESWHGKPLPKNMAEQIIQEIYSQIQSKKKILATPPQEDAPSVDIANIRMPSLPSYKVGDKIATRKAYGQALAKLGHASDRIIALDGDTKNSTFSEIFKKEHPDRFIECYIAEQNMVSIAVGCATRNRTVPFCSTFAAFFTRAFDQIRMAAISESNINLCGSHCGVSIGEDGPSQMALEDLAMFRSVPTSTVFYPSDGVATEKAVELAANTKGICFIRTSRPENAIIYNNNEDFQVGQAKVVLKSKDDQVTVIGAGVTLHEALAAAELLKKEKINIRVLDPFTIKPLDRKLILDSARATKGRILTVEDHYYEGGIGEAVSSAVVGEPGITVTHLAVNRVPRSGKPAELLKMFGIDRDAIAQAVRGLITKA
UniProt O43493: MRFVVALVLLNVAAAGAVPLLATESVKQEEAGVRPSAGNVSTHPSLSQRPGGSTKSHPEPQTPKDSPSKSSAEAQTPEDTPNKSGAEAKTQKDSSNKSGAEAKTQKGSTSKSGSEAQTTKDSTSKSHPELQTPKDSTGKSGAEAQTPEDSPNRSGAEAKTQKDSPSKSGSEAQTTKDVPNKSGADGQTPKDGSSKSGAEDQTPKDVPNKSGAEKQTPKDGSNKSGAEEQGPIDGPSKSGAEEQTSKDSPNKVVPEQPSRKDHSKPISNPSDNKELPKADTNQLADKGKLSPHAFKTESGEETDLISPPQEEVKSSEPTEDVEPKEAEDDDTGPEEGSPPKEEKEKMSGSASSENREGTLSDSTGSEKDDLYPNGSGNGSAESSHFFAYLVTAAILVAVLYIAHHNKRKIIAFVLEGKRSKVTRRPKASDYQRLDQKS
UniProt Q9NXG2: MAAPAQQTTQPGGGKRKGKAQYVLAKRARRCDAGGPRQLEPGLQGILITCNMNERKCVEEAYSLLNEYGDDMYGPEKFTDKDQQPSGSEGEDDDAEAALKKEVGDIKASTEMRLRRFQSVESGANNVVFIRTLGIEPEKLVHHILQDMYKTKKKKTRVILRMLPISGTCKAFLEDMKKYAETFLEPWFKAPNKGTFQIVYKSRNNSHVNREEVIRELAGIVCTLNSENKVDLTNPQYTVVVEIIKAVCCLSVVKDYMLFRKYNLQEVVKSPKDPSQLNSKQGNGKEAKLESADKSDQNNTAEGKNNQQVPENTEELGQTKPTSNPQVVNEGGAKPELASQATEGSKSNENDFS
UniProt Q9BZK7: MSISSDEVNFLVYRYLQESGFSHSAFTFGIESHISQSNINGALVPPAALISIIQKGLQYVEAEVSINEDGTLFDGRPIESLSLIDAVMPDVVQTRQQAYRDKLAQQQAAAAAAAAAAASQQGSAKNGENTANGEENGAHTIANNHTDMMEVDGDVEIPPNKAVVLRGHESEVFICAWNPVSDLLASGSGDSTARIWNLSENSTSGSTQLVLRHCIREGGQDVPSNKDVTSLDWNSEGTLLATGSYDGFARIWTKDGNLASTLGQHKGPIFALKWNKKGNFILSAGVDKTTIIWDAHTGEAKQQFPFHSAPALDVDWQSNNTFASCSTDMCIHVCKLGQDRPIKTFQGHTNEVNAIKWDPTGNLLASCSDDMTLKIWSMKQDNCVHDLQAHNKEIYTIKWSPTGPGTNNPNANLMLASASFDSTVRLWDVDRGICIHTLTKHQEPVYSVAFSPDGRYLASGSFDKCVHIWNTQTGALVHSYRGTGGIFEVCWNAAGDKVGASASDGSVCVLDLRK
UniProt Q9Y2W1: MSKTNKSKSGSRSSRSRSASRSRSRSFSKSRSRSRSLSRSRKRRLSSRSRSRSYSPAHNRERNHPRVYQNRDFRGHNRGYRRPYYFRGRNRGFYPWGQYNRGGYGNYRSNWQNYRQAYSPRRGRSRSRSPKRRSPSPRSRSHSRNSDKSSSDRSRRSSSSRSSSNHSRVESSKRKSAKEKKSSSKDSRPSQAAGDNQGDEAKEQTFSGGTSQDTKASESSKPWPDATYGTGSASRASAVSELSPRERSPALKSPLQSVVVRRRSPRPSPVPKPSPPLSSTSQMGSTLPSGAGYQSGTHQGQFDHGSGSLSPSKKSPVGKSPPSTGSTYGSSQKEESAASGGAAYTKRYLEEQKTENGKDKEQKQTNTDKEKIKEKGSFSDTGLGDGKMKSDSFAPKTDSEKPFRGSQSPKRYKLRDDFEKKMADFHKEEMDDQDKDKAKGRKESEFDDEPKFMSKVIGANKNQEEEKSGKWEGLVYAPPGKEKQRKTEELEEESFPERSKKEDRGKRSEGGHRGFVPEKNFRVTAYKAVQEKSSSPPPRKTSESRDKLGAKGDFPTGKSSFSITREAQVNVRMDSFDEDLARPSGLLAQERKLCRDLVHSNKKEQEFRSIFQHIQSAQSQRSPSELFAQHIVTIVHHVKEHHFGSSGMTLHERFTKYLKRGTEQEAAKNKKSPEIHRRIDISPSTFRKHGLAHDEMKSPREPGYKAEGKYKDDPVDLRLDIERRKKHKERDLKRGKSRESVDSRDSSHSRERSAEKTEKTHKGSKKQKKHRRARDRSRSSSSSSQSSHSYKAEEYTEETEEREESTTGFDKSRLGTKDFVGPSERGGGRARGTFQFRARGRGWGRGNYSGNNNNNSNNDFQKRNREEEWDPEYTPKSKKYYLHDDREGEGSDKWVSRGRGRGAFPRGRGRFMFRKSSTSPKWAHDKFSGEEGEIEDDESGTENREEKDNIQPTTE
UniProt Q9NPL8: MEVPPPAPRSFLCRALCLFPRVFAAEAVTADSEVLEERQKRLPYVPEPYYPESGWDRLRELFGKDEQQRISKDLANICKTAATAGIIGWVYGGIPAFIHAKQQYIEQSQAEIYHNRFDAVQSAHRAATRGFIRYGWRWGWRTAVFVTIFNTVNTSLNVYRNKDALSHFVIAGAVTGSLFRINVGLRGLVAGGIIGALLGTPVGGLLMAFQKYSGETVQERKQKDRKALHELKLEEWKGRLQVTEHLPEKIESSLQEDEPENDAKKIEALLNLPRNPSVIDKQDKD
UniProt P36897: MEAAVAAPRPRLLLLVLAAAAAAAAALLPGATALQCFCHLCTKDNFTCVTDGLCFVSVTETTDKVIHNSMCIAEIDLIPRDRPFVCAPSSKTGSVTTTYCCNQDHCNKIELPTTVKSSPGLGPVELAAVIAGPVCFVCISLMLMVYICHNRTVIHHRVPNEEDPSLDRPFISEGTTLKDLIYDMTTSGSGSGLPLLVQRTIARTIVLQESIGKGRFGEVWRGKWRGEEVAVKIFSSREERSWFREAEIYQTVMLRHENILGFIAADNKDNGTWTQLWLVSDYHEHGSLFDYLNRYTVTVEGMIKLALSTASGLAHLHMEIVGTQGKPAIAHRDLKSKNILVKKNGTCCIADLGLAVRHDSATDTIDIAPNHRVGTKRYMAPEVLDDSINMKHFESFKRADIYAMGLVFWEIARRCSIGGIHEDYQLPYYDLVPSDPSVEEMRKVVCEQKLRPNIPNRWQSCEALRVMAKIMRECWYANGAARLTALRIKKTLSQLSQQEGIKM
UniProt Q3LXA3: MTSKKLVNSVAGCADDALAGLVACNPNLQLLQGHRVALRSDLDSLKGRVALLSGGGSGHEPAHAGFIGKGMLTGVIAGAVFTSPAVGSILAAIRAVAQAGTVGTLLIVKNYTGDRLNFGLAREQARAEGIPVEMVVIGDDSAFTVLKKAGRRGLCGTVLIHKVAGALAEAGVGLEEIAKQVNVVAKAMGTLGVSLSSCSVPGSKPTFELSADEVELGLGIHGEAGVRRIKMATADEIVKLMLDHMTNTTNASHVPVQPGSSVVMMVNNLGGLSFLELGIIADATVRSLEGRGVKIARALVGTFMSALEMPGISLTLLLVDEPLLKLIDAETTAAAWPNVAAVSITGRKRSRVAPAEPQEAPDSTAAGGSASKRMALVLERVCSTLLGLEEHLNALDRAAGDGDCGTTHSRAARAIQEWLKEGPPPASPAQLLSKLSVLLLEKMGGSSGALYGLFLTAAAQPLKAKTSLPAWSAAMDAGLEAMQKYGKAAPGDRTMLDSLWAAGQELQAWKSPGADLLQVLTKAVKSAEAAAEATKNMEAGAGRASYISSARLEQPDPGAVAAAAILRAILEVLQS
UniProt Q9Y4P3: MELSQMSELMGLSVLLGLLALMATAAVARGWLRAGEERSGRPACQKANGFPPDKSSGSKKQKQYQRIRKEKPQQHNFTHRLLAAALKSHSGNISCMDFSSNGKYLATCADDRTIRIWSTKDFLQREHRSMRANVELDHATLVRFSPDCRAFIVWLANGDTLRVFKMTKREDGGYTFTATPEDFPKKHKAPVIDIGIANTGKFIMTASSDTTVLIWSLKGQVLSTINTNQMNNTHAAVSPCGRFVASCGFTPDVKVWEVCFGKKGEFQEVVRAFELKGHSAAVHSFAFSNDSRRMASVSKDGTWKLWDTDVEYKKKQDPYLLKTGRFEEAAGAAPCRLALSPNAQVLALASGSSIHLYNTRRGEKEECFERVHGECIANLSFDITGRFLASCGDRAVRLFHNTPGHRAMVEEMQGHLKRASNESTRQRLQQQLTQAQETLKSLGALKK

Assays:
Assay in all cases: log2 fold change, soluble protein after heating vs DMSO (PISA); higher = thermal stabilisation; K562 cells, 10 uM, 30 min; active = over 0.2 and 3.5 SD of the protein, either way, in both replicates (recomputed)
[1] = compound: C1=CC=C(C=C1)[C@H](COC2=CC3=C(C=C2)NC(=O)N3)NC(=O)C4=CC=CN(C4=O)CC5=CC(=C(C=C5)F)F
Summary of the method: (§1)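 K562 cells (2×10^6 cells/mL) were treated with 10 μM compound for 30 min, and aliquots were heated for 3 min over 48°C-58°C. Pooled aliquots were extracted in PBS with 0.5% NP-40 at 4°C, and the supernatant after 21,000xg for 90 min was measured by TMTpro 16plex LC-MS/MS with channel sums equalised. Reported thermal stability, relative to control samples and from duplicates, is a log2 fold change.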

[2] = compound: CC1=C(SC2=C1C(=N[C@H](C3=NN=C(N32)C)CC(=O)N)C4=CC=C(C=C4)Cl)C
Summary of the method: as §1

[3] = compound: CC1=C2C(=CC=C1)N=C(N(C2=O)C3=CC=CC=C3C)CN4C=NC5=C(N=CN=C54)N
Summary of the method: as §1

[4] = compound: Cc1sc2c(c1C)C(c1ccc(Cl)cc1)=N[C@@H](CC(=O)OC(C)(C)C)c1nnc(C)n1-2
Summary of the method: as §1

[5] = compound: c1ccc([C@@H]2C[C@H]2NC2CCNCC2)cc1
Summary of the method: as §1

Measured: log2 fold change

TBC1D23 (UniProt Q9NUY8)
inactive: [1] -0.039 | [2] 0.068 | [3] 0.034 | [4] -0.003 | [5] -0.037

TBPL1 (UniProt P62380)
inactive: [1] -0.007 | [2] 0.121 | [3] 0.059 | [4] -0.049 | [5] -0.07

TIMP1 (UniProt P01033)
inactive: [1] 0.021 | [2] -0.039 | [3] 0.068 | [4] 0 | [5] 0.077

TFAP4 (UniProt Q01664)
inactive: [1] -0.055 | [2] -0.077 | [3] 0.03 | [4] 0.004 | [5] 0.041

TJAP1 (UniProt Q5JTD0)
inactive: [1] 0.031 | [2] 0.12 | [3] 0.083 | [4] -0.046 | [5] 0.004

TK1 (UniProt K7ERV3)
inactive: [1] 0.038 | [2] 0.091 | [3] 0.083 | [4] 0.029 | [5] 0.015

Quoted from the entries so far (2 entries):
TIMP1 (UniProt P01033)
inactive: [1] 0.021 | [2] -0.039 | [3] 0.068 | [4] 0 | [5] 0.077

TFAP4 (UniProt Q01664)
inactive: [1] -0.055 | [2] -0.077 | [3] 0.03 | [4] 0.004 | [5] 0.041

(listing goes on)

TFRC (UniProt P02786)
inactive: [1] 0.058 | [2] 0.032 | [3] 0.008 | [4] 0.011 | [5] 0.021

TIMM50 isoform 2 (UniProt Q3ZCQ8)
inactive: [1] -0.006 | [2] 0.061 | [3] 0.072 | [4] -0.016 | [5] 0

THBS1 (UniProt P07996)
inactive: [1] -0.161 | [2] -0.048 | [3] 0.09 | [4] -0.01 | [5] 0.011

TBCB (UniProt Q99426)
inactive: [1] -0.001 | [2] 0.058 | [3] 0.035 | [4] 0.01 | [5] -0.006

TGFB1 (UniProt P01137)
inactive: [1] 0.012 | [2] 0.032 | [3] 0.02 | [4] -0.013 | [5] 0.019

TBCD (UniProt Q9BTW9)
inactive: [1] -0.028 | [2] 0.03 | [3] 0.101 | [4] -0.004 | [5] -0.03

TCOF1 isoform 6 (UniProt Q13428)
inactive: [1] 0.209 | [2] 0.151 | [3] -0.251 | [4] 0.271 | [5] 0.029

TBC1D5 isoform 2 (UniProt Q92609)
inactive: [1] -0.046 | [2] 0.055 | [3] 0.066 | [4] 0.003 | [5] -0.034

TKT isoform 2 (UniProt P29401)
inactive: [1] -0.014 | [2] 0.002 | [3] -0.015 | [4] -0.032 | [5] 0.011

THUMPD3 (UniProt Q9BV44)
inactive: [1] 0.008 | [2] 0.063 | [3] 0.008 | [4] -0.037 | [5] -0.006

TBCC (UniProt Q15814)
inactive: [1] 0.012 | [2] 0.078 | [3] 0.052 | [4] -0.027 | [5] -0.024

TFB1M (UniProt Q8WVM0)
inactive: [1] -0.161 | [2] -0.214 | [3] -0.177 | [4] 0.116 | [5] -0.053

TBCE (UniProt Q15813)
inactive: [1] -0.08 | [2] -0.005 | [3] 0.109 | [4] 0.105 | [5] -0.007

TGOLN2 isoform 7 (UniProt O43493)
inactive: [1] 0.042 | [2] 0.052 | [3] 0.015 | [4] 0.007 | [5] 0.047

TECR (UniProt Q9NZ01)
inactive: [1] -0.015 | [2] 0.049 | [3] 0.033 | [4] -0.046 | [5] 0

THUMPD1 (UniProt Q9NXG2)
inactive: [1] 0.009 | [2] -0.003 | [3] 0.03 | [4] -0.052 | [5] 0.024

TEX30 (UniProt Q5JUR7)
inactive: [1] -0.162 | [2] -0.141 | [3] 0.235 | [4] 0.12 | [5] 0.052

TBCA (UniProt O75347)
inactive: [1] -0.02 | [2] 0.016 | [3] 0.001 | [4] 0.009 | [5] 0.021

THEM4 (UniProt Q5T1C6)
inactive: [1] 0.012 | [2] 0.014 | [3] -0.027 | [4] -0.02 | [5] 0.009

THNSL1 (UniProt Q8IYQ7)
inactive: [1] -0.04 | [2] -0.01 | [3] 0.009 | [4] -0.025 | [5] 0.011

TCP1 (UniProt P17987)
inactive: [1] 0.001 | [2] 0.011 | [3] -0.012 | [4] -0.011 | [5] -0.01

TBL1XR1 (UniProt Q9BZK7)
inactive: [1] -0.041 | [2] 0.016 | [3] 0.037 | [4] 0.01 | [5] 0.047

THRAP3 (UniProt Q9Y2W1)
inactive: [1] 0.09 | [2] 0.193 | [3] -0.072 | [4] 0.046 | [5] 0.028

TIMMDC1 (UniProt Q9NPL8)
inactive: [1] 0.014 | [2] -0.038 | [3] 0.006 | [4] 0.01 | [5] 0.057

TERF2 (UniProt Q15554)
inactive: [1] 0.062 | [2] -0.205 | [3] -0.123 | [4] 0.182 | [5] 0.019

TDP2 isoform 2 (UniProt O95551)
inactive: [1] -0.089 | [2] 0.039 | [3] 0.092 | [4] 0.014 | [5] -0.118

TGFBR1 isoform 2 (UniProt P36897)
inactive: [1] -0.001 | [2] 0.029 | [3] -0.047 | [4] -0.029 | [5] 0.026

TBC1D9B (UniProt Q66K14)
inactive: [1] -0.025 | [2] 0.093 | [3] 0.042 | [4] 0.02 | [5] -0.062

THOC5 (UniProt Q13769)
inactive: [1] 0.035 | [2] -0.009 | [3] 0.017 | [4] 0.001 | [5] 0.031

TKT, A0A0B4J1R6
inactive: [1] -0.236 | [2] 0.046 | [3] 0.165 | [4] 0.157 | [5] 0.093

TKFC (UniProt Q3LXA3)
inactive: [1] 0.001 | [2] 0.058 | [3] -0.005 | [4] -0.014 | [5] 0.01

TGS1 (UniProt Q96RS0)
inactive: [1] -0.117 | [2] -0.155 | [3] 0.11 | [4] 0.069 | [5] -0.429

THBS4 (UniProt P35443)
inactive: [1] -0.091 | [2] -0.007 | [3] 0.138 | [4] -0.055 | [5] 0.06

TCAF1 (UniProt Q9Y4C2)
inactive: [1] -0.03 | [2] -0.031 | [3] 0.071 | [4] 0.082 | [5] -0.013

THYN1 (UniProt Q9P016)
inactive: [1] -0.024 | [2] 0.044 | [3] 0.043 | [4] 0.01 | [5] -0.067

TBK1 (UniProt Q9UHD2)
inactive: [1] -0.014 | [2] 0.007 | [3] 0.041 | [4] 0.011 | [5] -0.049

TIA1 (UniProt P31483)
inactive: [1] 0.018 | [2] 0.024 | [3] 0.017 | [4] 0.012 | [5] -0.026

TBL2 (UniProt Q9Y4P3)
inactive: [1] 0.009 | [2] -0.104 | [3] -0.011 | [4] 0.038 | [5] -0.059

TIMM17A (UniProt Q99595)
inactive: [1] 0.019 | [2] -0.021 | [3] -0.003 | [4] -0.002 | [5] 0.058
